{
  "source": "patent US20060275303A1",
  "about": "“Modulating angiogenesis using LL-37/HCAP-18” (priority 2003, published 2006)",
  "test_system": "HUVECs",
  "assay": "Inhibition of the LL-37/hCAP-18-induced proliferative response of endothelial cells",
  "type": "cell-based, human",
  "settings": "HUVECs preincubated with the inhibitor (pertussis toxin 10 ng/ml)",
  "protocol": "Endothelial cells from human umbilical veins (HUVEC) were isolated as described before^8. 10^4 cells were seeded on six well plastic dishes in serum free medium. Different concentrations of LL-37 were added to the culture medium. VEGF (5 ng/ml, 165 amino acid variant, Sigma Chemicals, Munich, Germany) was used as positive control. After 72 h the cells were detached from the support and counted. Experiments were repeated ten times using synthetic LL-37/hCAP-18 (37 C-terminal amino acids) and the hexapeptide WKYMVm, wherein “m” denotes the D-form of the amino acid methionine, from two different sources (IPF Pharmaceuticals, Hannover, Germany and Institute for Biochemistry, Humboldt-University of Berlin, Germany). As control peptide we used the peptide L-14 […] to have any interactions with FPRL1 from the same source (Humboldt-University). Human serum (10%, donor with ABO blood group O) was applied under the same conditions to analyze any impact on induction of proliferation by LL-37. […]\nAs a next step we analyzed which mechanisms might be involved in the angiogenic activity of LL-37/hCAP-18. We applied inhibitors of G-protein coupled receptors (pertussis toxin), PI-3K (wortmannin), and PKC (GF 109203X) and monitored cell proliferation as outcome parameter.",
  "note": "“Also recorded” adds a separate entry of the source. At least one structure is not confirmed: it was looked up by name or label, or the drawing left a doubt.",
  "data": [
    {"smiles": "COC[C@H]1OC(=O)c2coc3c2[C@@]1(C)C1=C(C3=O)[C@@H]2CCC(=O)[C@@]2(C)C[C@H]1OC(C)=O", "note": "[wortmannin]", "values": [
      {"measurement": "effect of the inhibitor on LL-37/hCAP-18-induced endothelial proliferation", "result": "inhibition of the proliferative response; also recorded: inhibited activities of LL-37/hCAP-18 on endothelial proliferation"}
    ]}
  ]
}
